In US20100150950A1, “HUMAN ANTIBODIES THAT BIND CD70 AND USES THEREOF” (Medarex, Inc., priority 2006, published 2010):
These are yes or no findings as the source states them, for the method shown. Some results given as binding are weak or reduced against the parent protein; the word gives no strength. Tags and fused reporters may be left off the sequences shown.

T1: recombinant human CD70 fused with a dual myc-His tag (human) (UniProt P32970)
T1 sequence: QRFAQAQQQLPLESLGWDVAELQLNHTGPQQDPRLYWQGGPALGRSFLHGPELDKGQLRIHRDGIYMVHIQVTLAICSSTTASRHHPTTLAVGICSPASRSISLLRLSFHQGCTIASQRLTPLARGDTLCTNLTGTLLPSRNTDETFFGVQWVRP


Tests used:
[1] = biological target: T1, recombinant human CD70 fused with a dual myc-His tag (human); experiment: ELISA on plate-coated recombinant myc-tagged CD70, anti-human IgG-HRP detection
[2] = biological target: T1, recombinant human CD70 fused with a dual myc-His tag (human); experiment: ELISA, plate coated with recombinant myc-tagged CD70, antibody from 1 µg/ml in 1:2 dilutions
[3] = biological target: T1, recombinant human CD70 fused with a dual myc-His tag (human); experiment: blocking ELISA: antibody pre-mixed with CD70-myc-his, binding to captured CD27-Fc-his detected with anti-myc-HRP; blocked ligand CD27

Binder | binding [1] | binding [2] | binding [3]
anti-CD70 human monoclonal antibody 8B5 (antibody, V domains shown, Human IgG from hybridoma) VH: QVQLVESGGGVVQPGRSLRLSCATSGFTFSDYGMHWVRQAPGKGLEWVAVIWYDGSNKYYADSVKGRFTISRDNSKKTLSLQMNSLRAEDTAVYYCARDSIMVRGDYWGQGTLVTVSS VL: DIQMTQSPSSLSASVGDRVTITCRASQGISSWLAWYQQKPEKAPKSLIYAASSLQSGVPSRFSGSGSGTDFTLTISSLQPEDFATYYCQQYNSYPLTFGGGTKVEIK | binds | binds | binds
anti-CD70 human monoclonal antibody 10B4 (antibody, V domains shown, Human IgG from hybridoma) VH: QIQLVESGGGVVQPGRSLRLSCAASGFTFGYYAMHWVRQAPGKGLEWVAVISYDGSIKYYADSVKGRFTISRDNSKNTLYLQMNSLRAEDTAVYYCAREGPYSNYLDYWGQGTLVTVSS VL: AIQLTQSPSSLSASVGDRVTITCRASQGISSALAWYQQKPGKAPKFLIYDASSLESGVPSRFSGSGSGTDFTLTISSLQPEDFATYYCQQFNSYPFTFGPGTKVDIK | binds | binds | –
